Measured data: PubChem BioAssay AID1159578 (Peter MacCallum Cancer Centre, 2015)
Here is one part, drawn at random, of about 18,000 reagents tested. Over the whole deposit, about 1,030 (5.7%) were called active. 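Inactive calls also include pools with fewer than 3300 nuclei, whose migration was not assessed.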 Raw values vary from plate to plate and are shown uncorrected. Unmarked entries are inactive.

Screen: 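siRNA pools altering how lymphatic endothelial cells close a scratch wound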 (primary screen)
System: human lymphatic endothelial cells
Knock-down reagent: siRNA pool against human genes, 40 nM
Timing: 48 h after transfection
Read-out: 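High-content imaging of dye-stained cells in a scratch assay measures filled wound area and nuclei per well; duplicate means given as ratio to mock and robust z-score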
Scale: migration robust z-score: higher = faster migration into the scratch; migration relative to mock: higher = more scratch area covered than mock; nuclei per well: higher = more cells in the well
Active means: 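Migration changed when robust z exceeds 2 or falls below -2 and mean nuclei number is at least 3300; otherwise not called changed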
Meaning of the calls: active = migration changed; inactive = no migration change, or too few cells

Target gene | migration robust z-score | migration class with cell-count check | migration relative to mock | nuclei per well, duplicate mean
CENPX | -0.56 | migration z between -2 and 2; enough cells | 0.74 | 6632
PLEKHG4 | -0.46 | migration z between -2 and 2; enough cells | 0.77 | 5428
GEMIN2 | 1.8 | migration z between -2 and 2; enough cells | 1.35 | 5832
GPBAR1 | -0.24 | migration z between -2 and 2; enough cells | 0.76 | 5118
PPP3R2 | 0.16 | migration z between -2 and 2; enough cells | 0.84 | 5200
FRG1 | 0.36 | migration z between -2 and 2; enough cells | 0.98 | 5541
CHD1L | 0.18 | migration z between -2 and 2; enough cells | 0.84 | 4812
ECM2 | 2.22 (active) | migration z above 2; enough cells | 1.46 | 6416
DNAJA2 | 1.35 | migration z between -2 and 2; enough cells | 1.06 | 5916
CC2D1B | -0.05 | migration z between -2 and 2; enough cells | 0.88 | 7236
OR12D2 | -0.76 | migration z between -2 and 2; enough cells | 0.69 | 6328
ST6GAL2 | 1.12 | migration z between -2 and 2; enough cells | 1.02 | 5732
WDFY2 | 2.02 (active) | migration z above 2; enough cells | 1.41 | 6521
APOBEC3H | 1.61 | migration z between -2 and 2; enough cells | 1.3 | 6336
KDM3A | -1.49 | migration z between -2 and 2; enough cells | 0.5 | 5938
USP7 | -0.03 | migration z between -2 and 2; enough cells | 0.8 | 5734
CEP131 | -0.02 | migration z between -2 and 2; enough cells | 0.88 | 5282
DMTN | 0.57 | migration z between -2 and 2; enough cells | 1.03 | 6839
C1RL | -1.4 | migration z between -2 and 2; enough cells | 0.53 | 3866
PLCD1 | 0.44 | migration z between -2 and 2; enough cells | 0.89 | 4868
FGF9 | -0.11 | migration z between -2 and 2; enough cells | 0.78 | 6068
OSTF1 | -0.26 | migration z between -2 and 2; enough cells | 0.76 | 6880
BEX4 | -0.73 | migration z between -2 and 2; enough cells | 0.7 | 5799
PTPN11 | 0.44 | migration z between -2 and 2; enough cells | 0.89 | 5834
CDPF1 | 0.71 | migration z between -2 and 2; enough cells | 1.07 | 4972
CYB5R4 | -1.66 | migration z between -2 and 2; enough cells | 0.48 | 5367
TIMM50 | -0.34 | migration z between -2 and 2; enough cells | 0.74 | 6650

Active calls, among the entries above:
Target gene | migration robust z-score | migration class with cell-count check | migration relative to mock | nuclei per well, duplicate mean
ECM2 | 2.22 (active) | migration z above 2; enough cells | 1.46 | 6416
WDFY2 | 2.02 (active) | migration z above 2; enough cells | 1.41 | 6521

Next reagents follow.
Target gene | migration robust z-score | migration class with cell-count check | migration relative to mock | nuclei per well, duplicate mean
RRN3 | -0.72 | migration z between -2 and 2; enough cells | 0.7 | 5833
SMC5 | -0.77 | migration z between -2 and 2; enough cells | 0.68 | 5276
TUBB1 | 0.36 | migration z between -2 and 2; enough cells | 0.88 | 5838
PROX1 | 0.42 | migration z between -2 and 2; enough cells | 0.88 | 5370
GPR101 | 0.86 | migration z between -2 and 2; enough cells | 0.97 | 6372
ACAP1 | 0.61 | migration z between -2 and 2; enough cells | 1.04 | 6112
TRMT112 | -0.14 | migration z between -2 and 2; enough cells | 0.84 | 5908
SOCS7 | 0.99 | migration z between -2 and 2; enough cells | 1 | 5250
SUPT16H | 0.42 | migration z between -2 and 2; enough cells | 0.88 | 5737
BCCIP | -0.42 | migration z between -2 and 2; enough cells | 0.72 | 5262
PKP4 | 0.08 | migration z between -2 and 2; enough cells | 0.9 | 5383
PRR23E | -0.87 | migration z between -2 and 2; enough cells | 0.66 | 6747
MTERF1 | 0.26 | migration z between -2 and 2; enough cells | 0.86 | 7038
COBLL1 | -0.2 | migration z between -2 and 2; enough cells | 0.84 | 4452
BST2 | 1.12 | migration z between -2 and 2; enough cells | 1.17 | 6056
LIN7A | 2.52 (active) | migration z above 2; enough cells | 1.54 | 5484
LGI3 | -2.27 (active) | migration z below -2; enough cells | 0.3 | 3308
RPL3 | -1.27 | migration z between -2 and 2; enough cells | 0.55 | 4024
PTPRB | 0.54 | migration z between -2 and 2; enough cells | 0.91 | 6210
WDR55 | -3.04 | under 3300 nuclei; migration not judged | 0.08 | 2963
LDLR | -1.64 | migration z between -2 and 2; enough cells | 0.49 | 5401
PGPEP1 | 0.62 | migration z between -2 and 2; enough cells | 0.92 | 4991
CEP290 | 1.69 | migration z between -2 and 2; enough cells | 1.32 | 6856
FATE1 | -1.31 | migration z between -2 and 2; enough cells | 0.55 | 4574
ZNF491 | 0.86 | migration z between -2 and 2; enough cells | 1.11 | 5648
ZNF385C | -1.06 | migration z between -2 and 2; enough cells | 0.61 | 5499
PCDHA9 | -1.29 | migration z between -2 and 2; enough cells | 0.55 | 5668
GHRH | -1.1 | migration z between -2 and 2; enough cells | 0.6 | 3800
TAT | -0.88 | migration z between -2 and 2; enough cells | 0.66 | 5389
LRGUK | 1.4 | migration z between -2 and 2; enough cells | 1.25 | 5533
